According to PubChem BioAssay AID1347426 (Functional Genomics Laboratory (NCATS/FGL), 2020):
Among all 31,000 sequences or so, about 1,400 (4.5%) were called active.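 Rule for the calls: active = median seed-adjusted z-score above 1 or below -1; inactive = the rest.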 This is one part of the list.

Assay: Novel Modifiers of Survival Motor Neuron (SMN) Protein: Gene Identification via Genome-wide siRNA Screen;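 note: luminescence tracks full-length SMN protein made from the SMN2 reporter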
Details: HEK293T SMN2-luciferase reporter, siRNA knockdown, 72 h; actives lie on both sides
In short: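 Steps: spot 1 pmol siRNA, add Lipofectamine RNAiMax in serum-free DMEM, seed HEK293T SMN2–luciferase reporter cells; incubate 72 h at 37 °C; add ONE-Glo; normalize luminescence to control siRNA, log10, MAD. Candidates: |MAD| > 1.0.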

| Sequence | median seed-adjusted z-score |
| --- | --- |
| GGAUAUUGGUCCCAUUCUATT against HSDL1 | inactive: 0.0547 |
| CCAGGUUUUGAGGAGCUUATT against FNTB | inactive: -0.0163 |
| GAGCUGGAGAGACUAGAAATT against TLK2 | inactive: 0.347 |
| GCGCUCUCAUUUUACCAAATT against SREBF2 | inactive: -0.606 |
| GGGAAAAUGAGCUAACGUATT against CD59 | inactive: 0.79 |
| CACCACCGCUCAUCACUUATT against ZNF76 | inactive: -0.0395 |
| UAUCCAUUCCUGUUCGACATT against PAQR6 | inactive: 0.632 |
| CCGUGAAUGUGCAAGACAATT against ESAM | inactive: 0.314 |
| CGGACAUCGUGGUUAAGGATT against FBXO6 | inactive: 0.0361 |
| GCUCAACAGUCAAGGCUUUTT against RS1 | inactive: -0.684 |
| CCCAGACCCUGAUACUUCATT against MEF2A | inactive: -0.0658 |
| AGAUGUGAAUGGACCCGAATT against CHP | inactive: -0.35 |
| CGCUCUAUGGGAUUUACUATT against CLPS | inactive: -0.799 |
| GCAGUAUGGAGGAUAUAGATT against SS18 | inactive: 0.34 |
| CGAACUACCUGUUGCGCAATT against GAL3ST3 | inactive: -0.54 |
| CUGUGAAUAUAUAACUCUATT against TRUB1 | inactive: 0.561 |
| GCAUGUACUUUCGCAUGAATT against PLA2G6 | inactive: -0.123 |
| GGAACUACAGCGAAUGCUATT against TAF1 | inactive: -0.582 |
| GAAAGUUGCUGAAUAACCATT against PPP2R3A | inactive: 0.175 |
| GAAGGUUUCUGUGCCCUCATT against SLC4A9 | inactive: 0 |
| GGCAUAAGUUUGUCGAGAUTT against RYR2 | inactive: -0.354 |
| GGAUUACCCAGACAAGACATT against SLC35A1 | inactive: 0.00794 |
| CCCUGUGCAUGGACAUUGATT against FBN3 | inactive: 0.264 |

| Sequence | median seed-adjusted z-score |
| --- | --- |
| CCGCUACCCUAAUAUCGAATT against SNRNP200 | inactive: 0.889 |
| CCCUCAGACUGUACGCAGATT against PGM5 | inactive: -0.0543 |
| AGAUAGUGACCGCCCGUGATT against EMID1 | inactive: 0.979 |
| GCUCAAAUGGAGAACUAAATT against GALNT8 | inactive: -0.283 |
| GCACCUCUCAAGCAGAAAATT against IL1B | inactive: -0.21 |
| CCAACUCAGCAUCCCACAATT against STK16 | inactive: 0.113 |
| ACGAAUUCGUGCUCAAGGATT against LMX1B | inactive: 0.125 |
| CAUUGAUCGUAUCGACAAATT against AGPAT5 | inactive: 0.571 |
| GGAUCUGACAGGAAAUAGATT against MBL2 | inactive: -0.252 |
| AAAUGGGUCUUAUGACAUUTT against ACAA1 | inactive: 0.384 |
| CAAGGGCCGUGUUACAUGATT against TMCO3 | inactive: -0.441 |
| GGAACUUUUUCGUCGGUAUTT against RNGTT | active: -1.55 |
| GCGUGACAAGGACCACAAATT against MMAA | inactive: -0.664 |
| UGCUAAUGGUGGAAACCCATT against TGFB1 | inactive: 0 |
| GCAGUGGUCGCAUCACAUATT against PITPNM3 | inactive: -0.0378 |
| GCCUGGUCAAGAAACUCAATT against SMAD3 | inactive: -0.715 |
| CUAUCAUAGUGACAAGCGATT against GJA5 | inactive: 0.707 |
| GCUCCACAGCAUAUGCUCATT against NFIL3 | inactive: 0.4 |
| GAAAGUCCACAUUACGGAATT against ZNF35 | inactive: -0.332 |
| GAAUUGUGCCUGCUAUUAUTT against ADAM9 | inactive: 0 |
| GGACAGACGGAACAAGGGATT against AQP10 | inactive: -0.09 |
| GGUUCAAUGGAAAAGGGAATT against DLX6 | inactive: 0.0275 |
| GGUGGACAGAGGAAAAUCATT against ARL3 | inactive: 0.551 |

As a working copy, part of the list above:

| Sequence | median seed-adjusted z-score |
| --- | --- |
| GCCUGGUCAAGAAACUCAATT against SMAD3 | inactive: -0.715 |
| CUAUCAUAGUGACAAGCGATT against GJA5 | inactive: 0.707 |
| GCUCCACAGCAUAUGCUCATT against NFIL3 | inactive: 0.4 |
| GAAAGUCCACAUUACGGAATT against ZNF35 | inactive: -0.332 |

Remaining list, next part

| Sequence | median seed-adjusted z-score |
| --- | --- |
| ACUGGAUGUUUAUUUAUAATT against ATP6V0C | inactive: -0.389 |
| GGAAGUAUUACUUAAUUCATT against NCOA4 | inactive: -0.0638 |
| ACACGCAUAUCUUUACUUUTT against TBX21 | inactive: -0.454 |
| GCAUGAUACAGACAGCGCATT against ATP8A1 | inactive: 0 |
| GGAUCCGUAUUGAUGAUGATT against RIT1 | inactive: -0.157 |
| GGAACUCAUUAUACAAUGATT against CLCN3 | inactive: -0.0801 |
| ACAAGGACUAUUACAGAUATT against PLA2G2D | inactive: 0.361 |
| CCAAGUUCAAGAAACUCUATT against DLX3 | inactive: 0 |
| GGAUAGUGUACGUGAAUGATT against CPE | inactive: 0.139 |
| GGCCGAUUGUGAACAUGGATT against TERT | inactive: -0.698 |
| UGCUGUGCCUCGAAUGUCATT against GPR172A | inactive: 0.382 |
| GGCUUUUUAGAUUUCGAAATT against TIGD7 | inactive: -0.116 |
| GCAACUCCAUGUUUCAUAATT against PRMT1 | inactive: -0.596 |
| CAUCGUCUCUGGGUAUAUUTT against PRIM1 | inactive: -0.23 |
| GCAGCAAUCCUGUUUGGAUTT against SLC2A11 | inactive: 0 |
| CAAAAUACAGAGUUUCUUUTT against RILP | inactive: 0.503 |
| ACAUACUUCCGGCAGAACATT against ATP6V1G1 | inactive: 0.311 |
| GGAGGUACCCAUUCCAGAATT against E2F5 | inactive: -0.628 |
| GAGCAAGGGCUGUAUCGAATT against ARHGAP26 | inactive: 0.34 |
| GGUGUUUGAUUGUGAGAAUTT against UBE2G1 | inactive: 0.174 |
| CGCCUACAACCUCAACUAUTT against LCT | inactive: 0.411 |
| GGAAGACAUUUACCGACCATT against BCAT2 | inactive: 0.0438 |
| CUCCAGUGCUUGAAUAUCATT against KLK5 | inactive: 0 |
